Results on 2 molecules are retold here after patent US20030119102A1.

These are yes or no findings as the source states them, for the method shown. For some assays here: In cells and extracts the contact can be indirect. For some assays here: A result given as binding can be weak or reduced; the word gives no strength.

The target of assay [1] is PSD-95. The assay is described as follows: immunofluorescence and reciprocal co-immunoprecipitation, COS-1 cells.
Assay [2] has as its target PSD-95. The assay is described as follows: control coexpression in COS-1 cells.

B1: chimeric Kv4.3 subunit (Kv4.3ch) (protein, rat)
chain: MAAGVAAWLPFARAAAIGWMPVANCPMPLAPADKNKRQDELIVLNVSGRRFQTWRTTLERYPDTLLGSTEKEFFFNEDTKEYFFDRDPEVFRCVLNFYRTGKLHYPRYECISAYDDELAFYGILPEIIGDCCYEEYKDRKRENAERLMDDNESENNQESMPSLSFRQTMWRAFENPHTSTLALVFYYVTGFFIAVSVITNVVETVPCGTVPGSKELPCGERYSVAFFCLDTACVMIFTVEYLLRLFAAPSRYRFIRSVMSIIDVVAIMPYYIGLVMTNNEDVSGAFVTLRVFRVFRIFKFSRHSQGLRILGYTLKSCASELGFLLFSLTMAIIIFATVMFYAEKGSSASKFTSIPASFWYTIVTMTTLGYGDMVPKTIAGKIFGSICSLSGVLVIALPVPVIVSNFSRIYHQNQRADKRRAQKKARLARIRVAKTGSSNAYLHSKRNGLLNEALELTGTPEEEHMGKTTSLIESQHHHLLHCLEKTTGLSYLVDDPLLSVRTSTIKNHEFIDEQMFEQNCMESSMQNYPSTRSPSLSSHSGLTTTCCSRRSKKTTHLPNSNLPATRLRSMQELSTIHIQGSEQPSLTTSRSSLNLKADDGLRPNCKTSQITTAIISIPTPPALTPEGESRPPPASPGPNTNIPSITSNVVKVSVLSNAKAVETDV
For the molecule B1, the binding result in assay [1] is recorded as “binds”.

B2: rat 1v (protein)
chain: MPARVLLAYPGTEMLTQGESEGLQTLGIVVVLCSSLKLLHYLGLIDLSDDKIEDDLEMTMVCHRPEGLEQLEAQTNFTKRELQVLYRGFKNECPSGVVNEETFKQIYAQFFPHGDASTYAHYLFNAFDTTQTGSVKFEDFVTALSILLRGTVHEKLRWTFNLYDINKDGYINKEEMMDIVKAIYDMMGKYTYPVLKEDTPRQHVDVFFQKMDKNKDGIVTLDEFLESCQEDDNIMRSLQLFQNVM
Consider B2, for which, in assay [2], the binding result was “no binding”.
